Measured values from patent US12306164B2, “Therapeutic drug for lipid-peroxidation-induced diseases and screening method for therapeutic drugs for lipid-peroxidation-induced diseases” (FUSO PHARMACEUTICAL INDUSTRIES, LTD., priority 2017, dated 2025).
“Also recorded” adds a separate entry of the source.

Experiments:
[1] = system: lipid peroxidation reaction; experiment: Responsiveness of profluorescent nitroxide probe to lipid peroxidation reaction (liposomes + AAPH); conditions: 5.0 μM probe, 20 mM AAPH, after 40 minutes
[2] = Reactivity of profluorescent nitroxide probe with various oxidants; conditions: liposomes and AAPH (10 mM), after 30 minutes

CC1(C)CC(Nc2ccc([N+](=O)[O-])c3nonc23)CC(C)(C)N1[O] [NBD-TEMPO, 2,2,6,6-Tetramethyl-4-(4-nitrobenzo[1,2,5]oxadiazol-7-ylamino)piperidin-1-oxyl]
fluorescence intensity increase compared to that in the case without AAPH [1]: 8.2 times

CCC1(CC)CC(Nc2ccc([N+](=O)[O-])c3nonc23)CC(CC)(CC)N1O [NBD-TEEPO, 2,2,6,6-tetraethyl-4-(4-nitrobenzo[1,2,5]oxadiazol-7-ylamino)piperidin-1-oxyl]
responsiveness to lipid peroxidation reaction [2]: advantages in responsiveness; also recorded: high responsiveness

CN(C)c1cccc2c(S(=O)(=O)NC3CC(C)(C)N([O])C(C)(C)C3)cccc12 [Dansyl-TEMPO, 2,2,6,6-Tetramethyl-4-(5-(dimethylamino)naphthalene-1-sulfonylamino)piperidin-1-oxyl]
fluorescence intensity increase compared to that in the case without AAPH [1]: 1.4 fold
